Literature values in patent US20070129403A1, “METHOD OF TREATING SCHIZOPHRENIA AND/OR GLUCOREGULATORY ABNORMALITIES” (AVENTIS PHARMACEUTICALS INC., priority 2004, published 2007).
At least one structure is not confirmed: it was looked up by name or label, or the drawing left a doubt.

Chains of the proteins cited; added tags and fusions are not shown.
UniProt P23975, whole entry: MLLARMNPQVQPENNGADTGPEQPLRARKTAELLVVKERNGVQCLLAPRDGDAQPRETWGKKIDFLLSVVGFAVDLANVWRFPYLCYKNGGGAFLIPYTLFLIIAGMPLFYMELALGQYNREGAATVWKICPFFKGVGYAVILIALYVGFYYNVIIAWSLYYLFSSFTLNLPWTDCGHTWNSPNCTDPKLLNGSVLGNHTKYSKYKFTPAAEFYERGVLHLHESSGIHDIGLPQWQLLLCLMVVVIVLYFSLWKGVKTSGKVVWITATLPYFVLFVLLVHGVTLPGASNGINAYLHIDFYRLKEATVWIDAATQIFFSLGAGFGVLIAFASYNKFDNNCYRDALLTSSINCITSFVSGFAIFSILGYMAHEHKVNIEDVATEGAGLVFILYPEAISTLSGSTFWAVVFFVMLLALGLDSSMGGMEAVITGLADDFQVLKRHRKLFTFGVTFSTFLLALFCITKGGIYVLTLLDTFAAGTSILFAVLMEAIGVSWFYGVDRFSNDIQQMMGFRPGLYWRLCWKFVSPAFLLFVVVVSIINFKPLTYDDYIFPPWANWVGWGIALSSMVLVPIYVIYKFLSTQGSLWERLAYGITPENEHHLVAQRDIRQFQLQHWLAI

Molecular target: noradrenergic uptake carrier (Homo sapiens, UniProt P23975)
Conditions: Smith et al, 1993; 1996; cited from earlier work

Structure (SMILES): CCCN(c1ccncc1F)n1cc(C)c2ccccc21 [HP184, N-(3-fluoro-4-pyridinyl)-N-propyl-3-methyl-1H-indole-1-amine]
- Interaction with noradrenergic uptake carrier (in words): does not interact
